These are yes or no findings as the source states them, for the method shown. Some entries that bind do so weakly or less than the wild type.
Molecular target: mixed lineage kinase domain-like protein (mouse (endogenous in substantia nigra of C57BL/6 mice)) (UniProt Q9D2Y4)
Test: western blot with conformation-sensitive A11 antibody; SN tissue of control, MPTP/probenecid and NSA-treated mice; A11 antibody specifically recognizing oligomeric proteins

binding: binds
B1: mixed lineage kinase domain-like protein (natural protein, UniProt Q9D2Y4 1-472, looked up)
chain: MDKLGQIIKLGQLIYEQCEKMKYCRKQCQRLGNRVHGLLQPLQRLQAQGKKNLPDDITAALGRFDEVLKEANQQIEKFSKKSHIWKFVSVGNDKILFHEVNEKLRDVWEELLLLLQVYHWNTVSDVSQPASWQQEDRQDAEEDGNENMKVILMQLQISVEEINKTLKQCSLKPTQEIPQDLQIKEIPKEHLGPPWTKLKTSKMSTIYRGEYHRSPVTIKVFNNPQAESVGIVRFTFNDEIKTMKKFDSPNILRIFGICIDQTVKPPEFSIVMEYCELGTLRELLDREKDLTMSVRSLLVLRAARGLYRLHHSETLHRNISSSSFLVAGGYQVKLAGFELSKTQNSISRTAKSTKAERSSSTIYVSPERLKNPFCLYDIKAEIYSFGIVLWEIATGKIPFEGCDSKKIRELVAEDKKQEPVGQDCPELLREIINECRAHEPSQRPSVDGRSLSGRERILERLSAVEESTDKKV
notes: mixed lineage kinase domain-like protein (MLKL), mouse, endogenous in the substantia nigra of C57BL/6 mice; Seen as a tetramer band in the insoluble fraction (non-reducing sample buffer) and as an oligomer on an A11 blot; also called MLKL; source: endogenous, mouse substantia nigra tissue lysate
